The test addresses myc-tagged human Mid51(R169W) (human) (UniProt Q9NQG6). As to the kind of experiment: SDS-resistant oligomers on SDS-PAGE immunoblot of the immunoprecipitate; anti-myc immunoprecipitate of the Mid51/Fis1 complex from HeLa lysate heated 20 min at 55°C, 4-20% Tris-Glycine SDS-PAGE; SDS-resistant complexes detected with anti-myc (Mid51 species) or anti-Flag (Fis1 species); species normalized to monomer. On the technique in general: A western blot detects proteins with antibodies after separation by electrophoresis.

Results are given in words; binding and its absence hold for the method and conditions named. Some binding calls cover weakened binding; strength is not graded here. Sequences can lack the tags named with a protein.

B1: myc-tagged human Mid51(R169W) (protein, UniProt Q9NQG6 1-463)
chain: MAGAGERKGKKDDNGIGTAIDFVLSNARLVLGVGGAAMLGIATLAVKRMYDRAISAPTSPTRLSHSGKRSWEEPNWMGSPRLLNRDMKTGLSRSLQTLPTDSSTFDTDTFCPPRPKPVARKGQVDLKKSRLRMSLQEKLLTYYRNRAAIPAGEQARAKQAAVDICAELWSFLRAKLPDMPLRDMYLSGSLYDDLQVVTADHIQLIVPLVLEQNLWSCIPGEDTIMNVPGFFLVRRENPEYFPRGSSYWDRCVVGGYLSPKTVADTFEKVVAGSINWPAIGSLLDYVIRPAPPPEALTLEVQYERDKHLFIDFLPSVTLGDTVLVAKPHRLAQYDNLWRLSLRPAETARLRALDQADSGCRSLCLKILKAICKSTPALGHLTASQLTNVILHLAQEEADWSPDMLADRFLQALRGLISYLEAGVLPSALNPKVNLFAELTPEEIDELGYTLYCSLSEPEVLLQT
As for B1, the binding result was “binds”.
